# According to paper PMC2927421, “Tyrosine-Phosphorylated Caveolin-1 Blocks Bacterial Uptake by Inducing Vav2-RhoA-Mediated Cytoskeletal Rearrangements” (PLoS Biology, 2010):
# Results are given in words; binding and its absence hold for the method and conditions named. Binding seen in cells or lysates may run through a third protein. Some results given as binding are weak or reduced against the parent protein; the word gives no strength. For part of these data: Where a sequence is shown, tags or fusion partners need not be part of it.
# T1: phospho-Tyr14-Cav1, full-length, endogenous, from pervanadate-treated ME-180 cells (human (endogenous in ME-180)), Q03135
# T1 chain: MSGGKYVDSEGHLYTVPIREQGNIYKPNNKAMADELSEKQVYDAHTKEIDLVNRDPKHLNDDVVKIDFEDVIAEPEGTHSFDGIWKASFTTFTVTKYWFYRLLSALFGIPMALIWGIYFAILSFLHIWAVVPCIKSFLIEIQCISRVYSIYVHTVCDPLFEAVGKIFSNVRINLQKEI
# T2: Full-length GFP-Vav2, P52735
# T2 chain: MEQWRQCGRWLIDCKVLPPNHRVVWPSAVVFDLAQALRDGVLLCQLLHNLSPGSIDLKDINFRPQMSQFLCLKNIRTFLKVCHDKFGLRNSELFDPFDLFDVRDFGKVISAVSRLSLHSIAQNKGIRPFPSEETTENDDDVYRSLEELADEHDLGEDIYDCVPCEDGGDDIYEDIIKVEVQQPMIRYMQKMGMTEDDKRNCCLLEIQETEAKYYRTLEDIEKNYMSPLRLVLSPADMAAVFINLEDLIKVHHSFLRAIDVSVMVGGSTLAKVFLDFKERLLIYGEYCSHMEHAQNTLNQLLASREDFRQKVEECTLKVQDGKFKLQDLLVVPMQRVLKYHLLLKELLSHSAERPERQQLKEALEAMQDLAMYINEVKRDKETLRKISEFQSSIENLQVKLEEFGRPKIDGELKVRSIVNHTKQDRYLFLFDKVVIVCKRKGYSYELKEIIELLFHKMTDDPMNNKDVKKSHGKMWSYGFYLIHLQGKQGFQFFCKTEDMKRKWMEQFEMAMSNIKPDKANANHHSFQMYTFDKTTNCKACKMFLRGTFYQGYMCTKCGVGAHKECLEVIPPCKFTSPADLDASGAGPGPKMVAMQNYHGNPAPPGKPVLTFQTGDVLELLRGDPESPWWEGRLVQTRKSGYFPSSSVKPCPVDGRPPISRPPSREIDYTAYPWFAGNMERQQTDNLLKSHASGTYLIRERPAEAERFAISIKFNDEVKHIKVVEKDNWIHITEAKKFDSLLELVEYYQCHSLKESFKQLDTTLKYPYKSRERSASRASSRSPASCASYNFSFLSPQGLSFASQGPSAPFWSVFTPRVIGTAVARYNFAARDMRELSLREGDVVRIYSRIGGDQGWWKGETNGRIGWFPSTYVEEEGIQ
# B1: Vav2 (endogenous, ME-180 cells), P52735 1-878 (protein)
# chain: MEQWRQCGRWLIDCKVLPPNHRVVWPSAVVFDLAQALRDGVLLCQLLHNLSPGSIDLKDINFRPQMSQFLCLKNIRTFLKVCHDKFGLRNSELFDPFDLFDVRDFGKVISAVSRLSLHSIAQNKGIRPFPSEETTENDDDVYRSLEELADEHDLGEDIYDCVPCEDGGDDIYEDIIKVEVQQPMIRYMQKMGMTEDDKRNCCLLEIQETEAKYYRTLEDIEKNYMSPLRLVLSPADMAAVFINLEDLIKVHHSFLRAIDVSVMVGGSTLAKVFLDFKERLLIYGEYCSHMEHAQNTLNQLLASREDFRQKVEECTLKVQDGKFKLQDLLVVPMQRVLKYHLLLKELLSHSAERPERQQLKEALEAMQDLAMYINEVKRDKETLRKISEFQSSIENLQVKLEEFGRPKIDGELKVRSIVNHTKQDRYLFLFDKVVIVCKRKGYSYELKEIIELLFHKMTDDPMNNKDVKKSHGKMWSYGFYLIHLQGKQGFQFFCKTEDMKRKWMEQFEMAMSNIKPDKANANHHSFQMYTFDKTTNCKACKMFLRGTFYQGYMCTKCGVGAHKECLEVIPPCKFTSPADLDASGAGPGPKMVAMQNYHGNPAPPGKPVLTFQTGDVLELLRGDPESPWWEGRLVQTRKSGYFPSSSVKPCPVDGRPPISRPPSREIDYTAYPWFAGNMERQQTDNLLKSHASGTYLIRERPAEAERFAISIKFNDEVKHIKVVEKDNWIHITEAKKFDSLLELVEYYQCHSLKESFKQLDTTLKYPYKSRERSASRASSRSPASCASYNFSFLSPQGLSFASQGPSAPFWSVFTPRVIGTAVARYNFAARDMRELSLREGDVVRIYSRIGGDQGWWKGETNGRIGWFPSTYVEEEGIQ
# modifications: here or on the partner: phosphotyrosine at 14
# B2: phospho-Tyr14-Cav1, full-length, endogenous, from pervanadate-treated ME-180 cells, Q03135 1-178 (protein)
# chain: MSGGKYVDSEGHLYTVPIREQGNIYKPNNKAMADELSEKQVYDAHTKEIDLVNRDPKHLNDDVVKIDFEDVIAEPEGTHSFDGIWKASFTTFTVTKYWFYRLLSALFGIPMALIWGIYFAILSFLHIWAVVPCIKSFLIEIQCISRVYSIYVHTVCDPLFEAVGKIFSNVRINLQKEI
# modifications: here or on the partner: phosphotyrosine at 14
# B3: Phospholipase Cγ1 (endogenous, ME-180 cells) (protein, UniProt P19174 1-1290)
# chain: MAGAASPCANGCGPGAPSDAEVLHLCRSLEVGTVMTLFYSKKSQRPERKTFQVKLETRQITWSRGADKIEGAIDIREIKEIRPGKTSRDFDRYQEDPAFRPDQSHCFVILYGMEFRLKTLSLQATSEDEVNMWIKGLTWLMEDTLQAPTPLQIERWLRKQFYSVDRNREDRISAKDLKNMLSQVNYRVPNMRFLRERLTDLEQRSGDITYGQFAQLYRSLMYSAQKTMDLPFLEASTLRAGERPELCRVSLPEFQQFLLDYQGELWAVDRLQVQEFMLSFLRDPLREIEEPYFFLDEFVTFLFSKENSVWNSQLDAVCPDTMNNPLSHYWISSSHNTYLTGDQFSSESSLEAYARCLRMGCRCIELDCWDGPDGMPVIYHGHTLTTKIKFSDVLHTIKEHAFVASEYPVILSIEDHCSIAQQRNMAQYFKKVLGDTLLTKPVEISADGLPSPNQLKRKILIKHKKLAEGSAYEEVPTSMMYSENDISNSIKNGILYLEDPVNHEWYPHYFVLTSSKIYYSEETSSDQGNEDEEEPKEVSSSTELHSNEKWFHGKLGAGRDGRHIAERLLTEYCIETGAPDGSFLVRESETFVGDYTLSFWRNGKVQHCRIHSRQDAGTPKFFLTDNLVFDSLYDLITHYQQVPLRCNEFEMRLSEPVPQTNAHESKEWYHASLTRAQAEHMLMRVPRDGAFLVRKRNEPNSYAISFRAEGKIKHCRVQQEGQTVMLGNSEFDSLVDLISYYEKHPLYRKMKLRYPINEEALEKIGTAEPDYGALYEGRNPGFYVEANPMPTFKCAVKALFDYKAQREDELTFIKSAIIQNVEKQEGGWWRGDYGGKKQLWFPSNYVEEMVNPVALEPEREHLDENSPLGDLLRGVLDVPACQIAIRPEGKNNRLFVFSISMASVAHWSLDVAADSQEELQDWVKKIREVAQTADARLTEGKIMERRKKIALELSELVVYCRPVPFDEEKIGTERACYRDMSSFPETKAEKYVNKAKGKKFLQYNRLQLSRIYPKGQRLDSSNYDPLPMWICGSQLVALNFQTPDKPMQMNQALFMTGRHCGYVLQPSTMRDEAFDPFDKSSLRGLEPCAISIEVLGARHLPKNGRGIVCPFVEIEVAGAEYDSTKQKTEFVVDNGLNPVWPAKPFHFQISNPEFAFLRFVVYEEDMFSDQNFLAQATFPVKGLKTGYRAVPLKNNYSEDLELASLLIKIDIFPAKENGDLSPFSGTSLRERGSDASGQLFHGRAREGSFESRYQQPFEDFRISQEHLADHFDSRERRAPRRTRVNGDNRL
# What was measured:
# [1] = target: T1, phospho-Tyr14-Cav1, full-length, …; assay: co-IP; endogenous Cav1 immunoprecipitated with anti-Cav1 antibody and protein G-agarose from lysates of untreated or pervanadate-treated ME-180 cells; precipitates probed for Cav1, phospho-Tyr14-Cav1 and Vav2; conditions: remark: other sources report otherwise
# [2] = target: T2, Full-length GFP-Vav2, P52735; assay: co-IP; GFP-Vav2 or GFP precipitated with a GFP antibody, truncated Vav2 with a FLAG antibody, from lysates of transfected, pervanadate-treated ME-180 cells; precipitates probed for phospho-Tyr14-Cav1; conditions: remark: other sources report otherwise
# [3] = target: biotin-labeled Tyr14-Cav1 phosphopeptide (15-mer, residues 7-21 of Cav1, phosphorylated on Tyr14) (human) (UniProt Q03135); assay: pull-down; biotinylated peptides (10 nmol) on streptavidin agarose beads, ~2 mg lysate of uninfected or P+GC-infected ME-180 cells, overnight at 4°C, 2 mM sodium orthovanadate in the lysis buffer; Western blot; only the target purified
binder,measurement,setting,value
B1,binding,[1],binds
B2,binding,[2],binds
B3,binding,[3],binds
